For at least one compound, name, drawing or mass did not settle the structure. Starred links: 1 amine or outer side, 2 acyl side, 3 side chain; linkers in the order of their positions; H or OH if unused. Positions of bridges follow the written chain, without caps; N, C: chain ends. Non-standard residues stand in square brackets, D forms with d. Residues, ends and D or L forms follow the SMILES beside them. Groups on a side chain read outwards from the residue. *: point of attachment. CH3O(CH2CH2O)11CH2CH2CO = COCCOCCOCCOCCOCCOCCOCCOCCOCCOCCOCCOCCC(=O)*; X16 = CCCCCCCCCCCCCCCC(=O)N[C@H](CCC(=O)NCC[N+](C)(C)CC(=O)*)C(=O)O; X13 = COC(=O)CCCCCCCCCCCCCCCCC(=O)NCC[N+](C)(C)CC(=O)*; X1 = C[N+](C)(CCNC(=O)CCCCCCCCCCCCCCCCC(=O)O)CC(=O)*; C18 diacid = O=C(O)CCCCCCCCCCCCCCCCC(=O)*; Dip = N[C@H](C(=O)O)C(c1ccccc1)c1ccccc1; Morpholine(3S-CO) = O=C(O)[C@@H]1COCCN1; γGlu = O=C(O)[C@H](CCC(=O)[*:2])N[*:1]; Palmitoyl = CCCCCCCCCCCCCCCC(=O)*; αMeF = C[C@](N)(Cc1ccccc1)C(=O)O; 3Pal = N[C@@H](Cc1cccnc1)C(=O)O; Tic = O=C(O)[C@@H]1Cc2ccccc2CN1; β3hF = N[C@H](CC(=O)O)Cc1ccccc1; NMeK = CN[C@@H](CCCCN)C(=O)O; Tle = CC(C)(C)[C@H](N)C(=O)O; β3hP = O=C(O)C[C@@H]1CCCN1; Isovaleryl = CC(C)CC(=O)*; hSer = N[C@@H](CCO)C(=O)O; Dap = NC[C@H](N)C(=O)O; AEEA = NCCOCCOCC(=O)O; Ahx = NCCCCCC(=O)O
biological target: T1, ferroportin (Homo sapiens, UniProt Q9NP59); experiment: T47D cell-based ferroportin internalization assay in presence of mouse serum albumin (MSA); design: a human breast carcinoma adherent cell line which endogenously expresses ferroportin; host or cells: T47D; details: T47D internalization assay in presence of mouse serum albumin (MSA); Table 6E
T1 sequence (Q9NP59 1-571): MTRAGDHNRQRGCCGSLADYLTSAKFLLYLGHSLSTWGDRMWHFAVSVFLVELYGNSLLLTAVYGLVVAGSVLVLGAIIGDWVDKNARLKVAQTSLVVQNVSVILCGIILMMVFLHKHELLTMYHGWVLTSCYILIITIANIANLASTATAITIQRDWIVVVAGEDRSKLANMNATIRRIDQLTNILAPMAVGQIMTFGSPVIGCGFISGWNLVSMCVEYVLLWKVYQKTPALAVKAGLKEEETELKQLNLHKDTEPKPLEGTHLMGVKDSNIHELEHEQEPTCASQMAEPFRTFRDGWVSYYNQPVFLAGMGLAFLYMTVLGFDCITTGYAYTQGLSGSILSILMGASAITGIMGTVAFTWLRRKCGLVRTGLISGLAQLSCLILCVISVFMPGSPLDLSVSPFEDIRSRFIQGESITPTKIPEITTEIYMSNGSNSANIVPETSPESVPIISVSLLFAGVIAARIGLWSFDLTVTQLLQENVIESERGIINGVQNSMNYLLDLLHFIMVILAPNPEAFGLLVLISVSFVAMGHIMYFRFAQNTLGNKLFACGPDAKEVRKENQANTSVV
Experimental: The potency of the peptides in causing ferroportin internalization was evaluated in a T47D cell-based assay. […] In this internalization assay, the potency of the test peptides was evaluated in presence of serum albumin which is the main protein component in the blood. T47D cells were maintained in RPMI media (containing required amount of fetal bovine serum) and regularly sub-cultured. In preparation for the assay, the cells were seeded in 96-well plates at a density of 80-100 k cells per well in 100 ul volume and allowed to rest overnight. […] Sigma, A3139). The test peptide dilution series were allowed to incubate at room temperature for 30 min. Then the media was aspirated from the 96-well cell plate and test peptide dilution series were added. […] The AF647-conjugated detection peptide was previously verified to bind to ferroportin and cause its internalization. The cells were washed again after a 2 hr incubation in preparation for flow cytometry analysis. The Median Fluorescence Intensity (MFI) of the AF647-positive population was measured (after removing dead cells and non-singlets from the analysis). The MFI values were used to generate a dose-response curve and obtain IC50 potencies for the test peptides.

| Compound | IC50 [nM] |
| --- | --- |
| CC(C)CC(=O)N[C@@H](CCC(=O)O)C(=O)N[C@@H](CCO)C(=O)N[C@@H](Cc1c[nH]cn1)C(=O)N[C@H](C(=O)N1CCC[C@H]1C(=O)N[C@H]1CSSC[C@@H](C(=O)N(C)[C@@H](CCCCNC(=O)COCCOCCNC(=O)COCCOCCNC(=O)[C@H](CN)NC(=O)CCCCCCCCCCCCCCCCC(=O)O)C(=O)N[C@H](CC(=O)N[C@H](CCCCN)C(N)=O)Cc2ccccc2)NC1=O)C(c1ccccc1)c1ccccc1 [compound 234] (Isovaleryl-E[hSer]H[Dip]PCC[NMeK]([AEEA-AEEA-Dap-C18 diacid])[β3hF][dK]-NH2; disulfide 6-7) | 100 to 500 |
| CC(C)CC(=O)N[C@@H](CC(C)C)C(=O)N[C@H](C(=O)N[C@@H](Cc1cccnc1)C(=O)N[C@H](C(=O)N1CCC[C@H]1C(=O)N[C@H]1CSSC[C@@H](C(=O)N(C)[C@@H](CCCCNC(=O)COCCOCCNC(=O)COCCOCCNC(=O)[C@H](CN)NC(=O)CCCCCCCCCCCCCCCCC(=O)O)C(=O)N[C@H](CC(=O)N[C@H](CCCCN)C(N)=O)Cc2ccccc2)NC1=O)C(c1ccccc1)c1ccccc1)[C@@H](C)O [compound 241] (Isovaleryl-LT[3Pal][Dip]PCC[NMeK]([AEEA-AEEA-Dap-C18 diacid])[β3hF][dK]-NH2; disulfide 6-7) | 100 to 500 |

same assay, conditions: Table 6E; T47D internalization assay with MSA

| Compound | IC50 [nM] |
| --- | --- |
| COC(=O)CCCCCCCCCCCCCCCCC(=O)NCC[N+](C)(C)CC(=O)NCCCC[C@@H](C(=O)N[C@H](C(N)=O)C(c1ccccc1)c1ccccc1)N(C)C(=O)[C@@H]1CSSC[C@H](NC(=O)[C@@H]2CCCN2C(=O)[C@@H](NC(=O)[C@H](Cc2c[nH]cn2)NC(=O)[C@@H](NC(=O)[C@H](CCC(=O)OC)NC(=O)CC(C)C)[C@@H](C)OC)C(c2ccccc2)c2ccccc2)C(=O)N1 [compound 146] (Isovaleryl-E(OMe)T(Me)H[Dip]PCC[NMeK](X13)[Dip]-NH2; disulfide 6-7) | 100 to 500 |
| CC(C)CC(=O)N[C@@H](CCC(=O)O)C(=O)N[C@H](C(=O)N[C@@H](Cc1c[nH]cn1)C(=O)N[C@H](C(=O)N1CCC[C@H]1C(=O)N[C@H]1CSSC[C@@H](C(=O)N(C)[C@@H](CCCCNC(=O)CCCCCNC(=O)[C@H](CN)NC(=O)CCCCCCCCCCCCCCCCC(=O)O)C(=O)N[C@H](C(=O)N[C@H](CCCCN)C(N)=O)C(c2ccccc2)c2ccccc2)NC1=O)C(c1ccccc1)c1ccccc1)[C@@H](C)O [compound 157] (Isovaleryl-ETH[Dip]PCC[NMeK]([Ahx-Dap-C18 diacid])[Dip][dK]-NH2; disulfide 6-7) | 10 to 100 |
| CCCCCCCCCCCCCCCC(=O)N[C@H](CCC(=O)NCC[N+](C)(C)CC(=O)NCCCC[C@@H](C(=O)N[C@H](C(=O)N[C@H](CCCCN)C(N)=O)C(c1ccccc1)c1ccccc1)N(C)C(=O)[C@@H]1CSSC[C@H](NC(=O)[C@@H]2CCCN2C(=O)[C@@H](NC(=O)[C@H](Cc2c[nH]cn2)NC(=O)[C@@H](NC(=O)[C@H](CCC(=O)O)NC(=O)CC(C)C)[C@@H](C)O)C(c2ccccc2)c2ccccc2)C(=O)N1)C(=O)O [compound 195] (Isovaleryl-ETH[Dip]PCC[NMeK](X16)[Dip][dK]-NH2; disulfide 6-7) | 1 to 10 |
| COC(=O)CC[C@H](NC(=O)CC(C)C)C(=O)N[C@H](C(=O)N[C@@H](Cc1c[nH]cn1)C(=O)N[C@H](C(=O)N1CCC[C@H]1C(=O)N[C@H]1CSSC[C@@H](C(=O)N[C@@H](CCCCNC(=O)CCCCCNC(=O)C[N+](C)(C)CCNC(=O)CCCCCCCCCCCCCCCCC(=O)O)C(=O)N[C@H](C(=O)N[C@H](C(N)=O)C(C)(C)C)C(c2ccccc2)c2ccccc2)NC1=O)C(c1ccccc1)c1ccccc1)[C@@H](C)O [compound 210] (Isovaleryl-E(OMe)TH[Dip]PCCK([Ahx-X1])[Dip][Tle]-NH2; disulfide 6-7) | 10 to 100 |
| CC(C)CC(=O)N[C@@H](CCC(=O)O)C(=O)N[C@H](C(=O)N[C@@H](Cc1c[nH]cn1)C(=O)N[C@H](C(=O)N1CCOC[C@H]1C(=O)N[C@H]1CSSC[C@@H](C(=O)N(C)[C@@H](CCCCNC(=O)COCCOCCNC(=O)COCCOCCNC(=O)[C@H](CN)NC(=O)CCCCCCCCCCCCCCCCC(=O)O)C(=O)N[C@H](CC(=O)N[C@H](CCCCN)C(N)=O)Cc2ccccc2)NC1=O)C(c1ccccc1)c1ccccc1)[C@@H](C)O [compound 217] (Isovaleryl-ETH[Dip][Morpholine(3S-CO)]CC[NMeK]([AEEA-AEEA-Dap-C18 diacid])[β3hF][dK]-NH2; disulfide 6-7) | 10 to 100 |
| CCCCCCCCCCCCCCCC(=O)N[C@@H](CCC(=O)NCCCC[C@@H](C(=O)N[C@H](CC(=O)N[C@H](CCCCNC(=O)CCOCCOCCOCCOCCOCCOCCOCCOCCOCCOCCOCCOC)C(N)=O)Cc1ccccc1)N(C)C(=O)[C@@H]1CSSC[C@H](NC(=O)[C@@H]2CCCN2C(=O)[C@@H](NC(=O)[C@H](Cc2c[nH]cn2)NC(=O)[C@@H](NC(=O)[C@H](CCC(=O)OC)NC(=O)CC(C)C)[C@@H](C)O)C(c2ccccc2)c2ccccc2)C(=O)N1)C(=O)O [compound 220] (Isovaleryl-E(OMe)TH[Dip]PCC[NMeK]([γGlu-Palmitoyl])[β3hF][dK](CH3O(CH2CH2O)11CH2CH2CO)-NH2; disulfide 6-7) | 1 to 10 |
| CCCCCCCCCCCCCCCC(=O)N[C@@H](CCC(=O)NCCCC[C@@H](C(=O)N[C@H](CC(=O)N[C@H](CCCCN)C(N)=O)Cc1ccccc1)N(C)C(=O)[C@@H]1CSSC[C@H](NC(=O)[C@@H]2CCCN2C(=O)[C@@H](NC(=O)[C@H](Cc2c[nH]cn2)NC(=O)[C@@H](NC(=O)[C@H](CCC(=O)OC)NC(=O)CC(C)C)[C@@H](C)O)C(c2ccccc2)c2ccccc2)C(=O)N1)C(=O)O [compound 221] (Isovaleryl-E(OMe)TH[Dip]PCC[NMeK]([γGlu-Palmitoyl])[β3hF][dK]-NH2; disulfide 6-7) | 1 to 10 |
| CC(C)CC(=O)N[C@@H](CCC(=O)O)C(=O)N[C@H](C(=O)N[C@@H](Cc1c[nH]cn1)C(=O)N[C@H](C(=O)N1Cc2ccccc2C[C@H]1C(=O)N[C@H]1CSSC[C@@H](C(=O)N(C)[C@@H](CCCCNC(=O)COCCOCCNC(=O)COCCOCCNC(=O)[C@H](CN)NC(=O)CCCCCCCCCCCCCCCCC(=O)O)C(=O)N[C@H](CC(=O)N[C@H](CCCCN)C(N)=O)Cc2ccccc2)NC1=O)C(c1ccccc1)c1ccccc1)[C@@H](C)O [compound 224] (Isovaleryl-ETH[Dip][Tic]CC[NMeK]([AEEA-AEEA-Dap-C18 diacid])[β3hF][dK]-NH2; disulfide 6-7) | 10 to 100 |
| CC(C)CC(=O)N[C@@H](CC(C)C)C(=O)N[C@H](C(=O)N[C@@H](Cc1cccnc1)C(=O)N[C@H](C(=O)N1CCC[C@H]1C(=O)N[C@H]1CSSC[C@@H](C(=O)N(C)[C@@H](CCCCNC(=O)COCCOCCNC(=O)COCCOCCNC(=O)[C@H](CN)NC(=O)CCCCCCCCCCCCCCCCC(=O)O)C(=O)N[C@@](C)(Cc2ccccc2)C(=O)N[C@H](CCCCN)C(N)=O)NC1=O)C(c1ccccc1)c1ccccc1)[C@@H](C)O [compound 226] (Isovaleryl-LT[3Pal][Dip]PCC[NMeK]([AEEA-AEEA-Dap-C18 diacid])[αMeF][dK]-NH2; disulfide 6-7) | 100 to 500 |
| CC(C)CC(=O)N[C@@H](CC(C)C)C(=O)N[C@H](C(=O)N[C@@H](Cc1cccnc1)C(=O)N[C@H](C(=O)N1CCC[C@H]1CC(=O)N[C@H]1CSSC[C@@H](C(=O)N(C)[C@@H](CCCCNC(=O)COCCOCCNC(=O)COCCOCCNC(=O)[C@H](CN)NC(=O)CCCCCCCCCCCCCCCCC(=O)O)C(=O)N[C@H](CC(=O)N[C@H](CCCCN)C(N)=O)Cc2ccccc2)NC1=O)C(c1ccccc1)c1ccccc1)[C@@H](C)O [compound 227] (Isovaleryl-LT[3Pal][Dip][β3hP]CC[NMeK]([AEEA-AEEA-Dap-C18 diacid])[β3hF][dK]-NH2; disulfide 6-7) | 100 to 500 |
| CC(C)CC(=O)N[C@@H](CC(C)C)C(=O)N[C@H](C(=O)N[C@@H](Cc1c[nH]cn1)C(=O)N[C@H](C(=O)N1CCC[C@H]1CC(=O)N[C@H]1CSSC[C@@H](C(=O)N(C)[C@@H](CCCCNC(=O)COCCOCCNC(=O)COCCOCCNC(=O)[C@H](CN)NC(=O)CCCCCCCCCCCCCCCCC(=O)O)C(=O)N[C@H](CC(=O)N[C@H](CCCCN)C(N)=O)Cc2ccccc2)NC1=O)C(c1ccccc1)c1ccccc1)[C@@H](C)O [compound 228] (Isovaleryl-LTH[Dip][β3hP]CC[NMeK]([AEEA-AEEA-Dap-C18 diacid])[β3hF][dK]-NH2; disulfide 6-7) | 10 to 100 |

— patent US20250277012A1 (Protagonist Therapeutics, Inc., priority 2021, published 2025)
